Data published in publication PMC7099064.
These are yes or no findings as the source states them, for the method shown. In cells and extracts the contact can be indirect. Some entries that bind do so weakly or less than the wild type.

Sequences of proteins named here, by UniProt entry; tags and fusion partners are left off.
UniProt Q13526: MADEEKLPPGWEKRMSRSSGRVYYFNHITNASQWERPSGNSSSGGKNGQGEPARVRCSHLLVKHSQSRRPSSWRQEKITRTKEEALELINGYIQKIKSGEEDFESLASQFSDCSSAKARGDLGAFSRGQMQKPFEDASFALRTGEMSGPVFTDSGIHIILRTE

Target: GST-Pin1 (UniProt Q13526)
Assay: pull-down; GST or GST-Pin1-linked beads incubated with brain lysates from WT or Kv4.2TA mice given saline or PTZ; blot for Kv4.2; only the target purified

binding: binds
B1: Kv4.2, endogenous in mouse brain and cultured mouse neurons (protein, UniProt Q9Z0V2 1-630)
chain: MAAGVAAWLPFARAAAIGWMPVASGPMPAPPRQERKRTQDALIVLNVSGTRFQTWQDTLERYPDTLLGSSERDFFYHPETQQYFFDRDPDIFRHILNFYRTGKLHYPRHECISAYDEELAFFGLIPEIIGDCCYEEYKDRRRENAERLQDDADTDNTGESALPTMTARQRVWRAFENPHTSTMALVFYYVTGFFIAVSVIANVVETVPCGSSPGHIKELPCGERYAVAFFCLDTACVMIFTVEYLLRLAAAPSRYRFVRSVMSIIDVVAILPYYIGLVMTDNEDVSGAFVTLRVFRVFRIFKFSRHSQGLRILGYTLKSCASELGFLLFSLTMAIIIFATVMFYAEKGSSASKFTSIPAAFWYTIVTMTTLGYGDMVPKTIAGKIFGSICSLSGVLVIALPVPVIVSNFSRIYHQNQRADKRRAQKKARLARIRAAKSGSANAYMQSKRNGLLSNQLQSSEDEPAFISKSGSSFETQHHHLLHCLEKTTNHEFVDEQVFEESCMEVATVNRPSSHSPSLSSQQGVTSTCCSRRHKKTFRIPNANVSGSHRGSVQELSTIQIRCVERTPLSNSRSSLNAKMEECVKLNCEQPYVTTAIISIPTPPVTTPEGDDRPESPEYSGGNIVRVSAL
